Measured values from doi:10.1101/751974.

Chains of the proteins cited; added tags and fusions are not shown.
UniProt P15927: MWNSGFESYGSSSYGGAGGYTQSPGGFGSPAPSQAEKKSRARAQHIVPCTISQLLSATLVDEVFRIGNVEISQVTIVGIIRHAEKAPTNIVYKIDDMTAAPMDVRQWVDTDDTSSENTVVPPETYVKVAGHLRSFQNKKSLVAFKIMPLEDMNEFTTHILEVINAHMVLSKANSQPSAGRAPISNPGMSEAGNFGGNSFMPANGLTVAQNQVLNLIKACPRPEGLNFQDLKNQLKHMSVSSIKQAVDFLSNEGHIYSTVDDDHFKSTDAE
UniProt P27694: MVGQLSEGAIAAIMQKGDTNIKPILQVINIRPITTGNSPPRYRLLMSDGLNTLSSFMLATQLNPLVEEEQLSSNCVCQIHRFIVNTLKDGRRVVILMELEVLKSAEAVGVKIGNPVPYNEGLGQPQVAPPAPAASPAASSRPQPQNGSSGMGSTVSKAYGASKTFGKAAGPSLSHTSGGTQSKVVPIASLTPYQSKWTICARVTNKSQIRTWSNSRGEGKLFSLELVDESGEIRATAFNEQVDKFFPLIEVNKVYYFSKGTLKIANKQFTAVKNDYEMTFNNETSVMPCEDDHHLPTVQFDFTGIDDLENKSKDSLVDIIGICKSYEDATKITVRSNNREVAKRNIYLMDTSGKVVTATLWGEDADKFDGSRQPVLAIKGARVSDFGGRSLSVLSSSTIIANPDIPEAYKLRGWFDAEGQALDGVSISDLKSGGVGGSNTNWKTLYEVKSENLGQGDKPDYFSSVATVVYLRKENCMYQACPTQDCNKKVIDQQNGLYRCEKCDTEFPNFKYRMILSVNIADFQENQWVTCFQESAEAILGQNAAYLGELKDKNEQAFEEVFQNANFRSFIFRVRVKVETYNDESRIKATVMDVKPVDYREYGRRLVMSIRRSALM

How the values were obtained:
MCM8IP-HA (human) = target: T1, MCM8IP-HA (human) (UniProt Q8N3J3); test: affinity purification with mass spectrometry
T1 sequence: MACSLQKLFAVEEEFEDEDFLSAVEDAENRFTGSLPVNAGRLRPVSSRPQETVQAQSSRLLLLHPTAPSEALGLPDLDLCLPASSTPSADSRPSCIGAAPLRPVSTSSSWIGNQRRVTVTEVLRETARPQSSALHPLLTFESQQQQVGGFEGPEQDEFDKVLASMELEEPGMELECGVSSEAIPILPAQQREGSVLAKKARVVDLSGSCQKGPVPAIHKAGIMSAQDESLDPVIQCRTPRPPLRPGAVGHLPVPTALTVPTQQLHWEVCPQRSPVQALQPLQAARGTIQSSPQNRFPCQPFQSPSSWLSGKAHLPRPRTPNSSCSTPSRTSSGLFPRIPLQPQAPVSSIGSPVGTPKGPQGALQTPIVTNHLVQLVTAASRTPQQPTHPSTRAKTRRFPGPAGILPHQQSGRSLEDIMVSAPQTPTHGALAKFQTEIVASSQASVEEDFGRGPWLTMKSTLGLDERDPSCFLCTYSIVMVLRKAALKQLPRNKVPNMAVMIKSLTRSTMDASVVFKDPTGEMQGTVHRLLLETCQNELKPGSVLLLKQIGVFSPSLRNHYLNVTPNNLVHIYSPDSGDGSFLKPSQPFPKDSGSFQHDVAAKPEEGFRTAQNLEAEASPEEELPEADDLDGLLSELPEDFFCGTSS

BirA*-MCM8IP (human) = target: T2, BirA*-MCM8IP (human) (UniProt Q8N3J3); test: proximity labelling
T2 sequence: T1 sequence

MCM8IP-BirA* (human) = target: T3, MCM8IP-BirA* (human) (UniProt Q8N3J3); test: proximity labelling
T3 sequence: T1 sequence

Row | binding (MCM8IP-HA (human)) | binding (BirA*-MCM8IP (human)) | binding (MCM8IP-BirA* (human)) | Substance
1 | binds | binds | binds | RPA2, endogenous (from UniProt P15927 1-270)
2 | binds | binds | binds | RPA1, endogenous (from UniProt P27694 1-616)

These are yes or no findings as the source states them, for the method shown. In cells and extracts the contact can be indirect. These calls come from enrichment with a bait or labelling near it, and not all partners need be listed. For part of these data: Where a sequence is shown, tags or fusion partners need not be part of it.
